Data reported in paper doi:10.1101/2022.03.27.486008.
Results are given in words; binding and its absence hold for the method and conditions named. For some assays here: Binding seen in cells or lysates may run through a third protein. Some results given as binding are weak or reduced against the parent protein; the word gives no strength. Sequences can lack the tags named with a protein.

The chains behind the UniProt entries cited, without tags or fusion partners.
UniProt Q39026: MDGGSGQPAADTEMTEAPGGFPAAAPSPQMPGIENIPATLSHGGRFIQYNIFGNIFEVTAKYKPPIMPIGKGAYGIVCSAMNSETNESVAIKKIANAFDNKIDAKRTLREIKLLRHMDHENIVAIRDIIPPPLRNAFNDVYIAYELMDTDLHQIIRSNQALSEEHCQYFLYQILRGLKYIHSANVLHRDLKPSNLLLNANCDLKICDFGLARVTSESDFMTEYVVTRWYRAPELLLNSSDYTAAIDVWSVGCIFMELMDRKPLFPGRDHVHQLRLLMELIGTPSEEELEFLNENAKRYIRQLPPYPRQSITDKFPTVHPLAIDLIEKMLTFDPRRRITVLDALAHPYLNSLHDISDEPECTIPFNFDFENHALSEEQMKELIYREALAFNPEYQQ

Legend:
[1] = target: T1, MKKK20 fused to the GAL4 DNA-binding domain (BD-MKKK20) (Arabidopsis thaliana) (UniProt Q9SND6); assay: two-hybrid
T1 sequence: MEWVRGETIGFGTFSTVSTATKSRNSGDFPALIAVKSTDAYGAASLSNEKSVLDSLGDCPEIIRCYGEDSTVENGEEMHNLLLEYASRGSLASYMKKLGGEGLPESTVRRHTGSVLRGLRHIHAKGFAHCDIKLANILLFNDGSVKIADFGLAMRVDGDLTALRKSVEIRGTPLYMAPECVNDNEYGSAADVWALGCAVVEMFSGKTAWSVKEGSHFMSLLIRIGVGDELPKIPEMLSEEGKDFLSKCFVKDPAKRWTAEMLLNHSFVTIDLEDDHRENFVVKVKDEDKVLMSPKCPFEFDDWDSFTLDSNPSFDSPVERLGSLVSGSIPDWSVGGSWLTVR

[2] = target: T2, MKKK20-cYFP (Arabidopsis thaliana) (UniProt Q9SND6); assay: split reporter
T2 sequence: T1 sequence

[3] = target: T3, MKK3-nYFP (Arabidopsis thaliana) (UniProt O80396); assay: split reporter
T3 sequence: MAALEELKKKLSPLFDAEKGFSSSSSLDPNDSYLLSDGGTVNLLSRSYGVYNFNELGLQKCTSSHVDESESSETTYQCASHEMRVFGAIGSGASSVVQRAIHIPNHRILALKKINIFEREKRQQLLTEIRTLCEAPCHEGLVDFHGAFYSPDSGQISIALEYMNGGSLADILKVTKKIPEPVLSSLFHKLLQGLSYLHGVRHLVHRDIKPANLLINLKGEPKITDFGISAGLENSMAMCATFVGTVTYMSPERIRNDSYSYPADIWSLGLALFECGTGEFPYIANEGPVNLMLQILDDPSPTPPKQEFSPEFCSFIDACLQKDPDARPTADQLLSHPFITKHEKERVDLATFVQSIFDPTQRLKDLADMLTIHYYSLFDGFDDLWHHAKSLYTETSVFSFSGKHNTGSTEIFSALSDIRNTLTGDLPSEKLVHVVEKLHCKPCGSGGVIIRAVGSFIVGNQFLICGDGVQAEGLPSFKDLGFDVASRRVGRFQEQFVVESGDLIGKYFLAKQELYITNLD

[4] = target: T4, MKK3 fused to the GAL4 DNA-binding domain (BD) (Arabidopsis thaliana) (UniProt O80396); assay: two-hybrid
T4 sequence: T3 sequence

Row | Substance | binding [1] | binding [2] | further results
1 | CaM1 fused to the GAL4-activating domain (from UniProt P0DH95 1-149) | binds |  | 
2 | CaM1, nYFP-tagged (from UniProt P0DH95 1-149) |  | binds | 
3 | CaM4 fused to the GAL4-activating domain (from UniProt P0DH96 1-149) | binds |  | 
4 | MPK6 for BiFC with MKK3-nYFP (from UniProt Q39026 1-395) |  |  | binding [3]: binds
5 | MPK6 fused to the GAL4-activating domain (AD) (from UniProt Q39026 1-395) |  |  | binding [4]: binds

More lines, main results first:

Row | binding [1] | binding [2] | Substance | further results
6 |  | binds | CaM4, nYFP-tagged (from UniProt P0DH96 1-149) | 
7 | binds |  | CaM6 fused to the GAL4-activating domain (from UniProt Q03509 1-149) | 
8 |  | binds | CaM6, nYFP-tagged (from UniProt Q03509 1-149) | 
